Record: PubChem BioAssay AID504791 (Drosophila RNAi Screening Center, 2011)

Aim: 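Factors in Argonaute-based small RNA production and activity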 (primary screen)
System: Drosophila S2-derived reporter cells
Reagents: long dsRNA against Drosophila genes, about 150-250 ng dsRNA per well (siRNA assay); about 80-120 ng (miRNA assay)
Duration: about 5 days (siRNA assay); about 4 days (miRNA assay)
Challenge: copper sulfate induction of reporters: 25 µM (siRNA assay); 200 mM stated (miRNA assay), 1-2 days before reading
Read-out: 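Dual luciferase assay: Renilla to firefly signal ratio in each well, scaled to the mean ratio of its plate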
Rule for the call: 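First-pass picks had plate-scaled ratios over 1.5 for the siRNA assay, over 1.6 for the miRNA assay, or under 0.6; two distinct dsRNAs had to score alike on retest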
The screen tested about 23,000 reagents; this is an unselected part of those that have a named target and a result. In the full data, 199 (0.86%) were called active. 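Plate-scaled ratios behind the calls are not deposited; printed light signals are raw; many rows marked increased or decreased are still called inactive.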 A plus sign joins genes that one reagent is predicted to hit. The record does not give: the direction of the score.

| predicted target | amplicon | stable siRNA reporter change | miRNA reporter change | stable assay Renilla, run 1 (luminescence) | stable assay firefly, run 1 (luminescence) | outcome |
| --- | --- | --- | --- | --- | --- | --- |
| IP3K1 + hpRNA:CR18854 | DRSC23313 | – | – | 9078 | 5.41e5 | inactive |
| Cds (GeneID 43950) | DRSC10938 | – | – | 7813 | 3.33e5 | inactive |
| Sox15 (GeneID 36575) | DRSC07555 | – | – | 6818 | 3.54e5 | inactive |
| CG34300 (GeneID 5740334) | DRSC13977 | – | – | 5028 | 3.79e5 | inactive |
| CG4822 (GeneID 33170) | DRSC00669 | – | – | 10718 | 4.51e5 | inactive |
| Nup43 (GeneID 42209) | DRSC16279 | – | – | 10219 | 4.54e5 | inactive |
| AP-2alpha (GeneID 33211) | DRSC00800 | – | – | 9827 | 3.93e5 | inactive |
| Or63a (GeneID 38354) | DRSC08681 | – | – | 6355 | 3.42e5 | inactive |
| CG15880 (GeneID 33257) | DRSC00474 | – | – | 7310 | 3.78e5 | inactive |
| CG2021 (GeneID 38229) | DRSC08546 | – | – | 7571 | 3.24e5 | inactive |
| Gr22f (GeneID 117349) | DRSC00076 | – | – | 5352 | 3.93e5 | inactive |
| Usp12-46 (GeneID 42702) | DRSC16175 | – | – | 7162 | 3.64e5 | inactive |
| etaTry (GeneID 36217) | DRSC07613 | – | – | 6343 | 3.83e5 | inactive |
| rush (GeneID 31105) | DRSC18568 | reporter ratio lowered past the hit cutoff | – | 5947 | 5.44e5 | inactive |
| Src42A (GeneID 35524) | DRSC04915 | – | – | 5779 | 3.36e5 | inactive |
| LS2 (GeneID 37681) | DRSC04340 | – | – | 7110 | 4.84e5 | inactive |
| ci (GeneID 43767) | DRSC17172 | – | – | 6072 | 4.52e5 | inactive |
| CG15373 (GeneID 32784) | DRSC19663 | – | – | 5367 | 4.31e5 | inactive |
| Ir56a (GeneID 246471) | DRSC05776 | – | – | 6010 | 4.10e5 | inactive |
| Nep2 (GeneID 40588) | DRSC12126 | – | – | 9185 | 3.91e5 | inactive |
| Nep2 (GeneID 40588) | DRSC21398 | – | – | 9020 | 4.99e5 | inactive |
| scu (GeneID 32789) | DRSC20369 | – | – | 5979 | 4.11e5 | inactive |
| CG5107 (GeneID 43084) | DRSC15716 | – | – | 8178 | 4.61e5 | inactive |
| CG12446 (GeneID 33147) | DRSC20618 | – | – | 4528 | 3.08e5 | inactive |
| Cog6 (GeneID 35953) | DRSC06806 | – | – | 7567 | 3.46e5 | inactive |
| CG16865 (GeneID 34788) | DRSC01904 | – | – | 8589 | 4.45e5 | inactive |
| Coop (GeneID 35677) | DRSC06604 | – | – | 11319 | 2.14e6 | inactive |
| myd (GeneID 42303) | DRSC14762 | – | – | 8673 | 2.88e5 | inactive |
| myd (GeneID 42303) | DRSC15512 | – | – | 7359 | 3.74e5 | inactive |
| CG5577 (GeneID 39985) | DRSC10519 | – | – | 8424 | 3.07e5 | inactive |
| rho-6 (GeneID 34640) | DRSC02588 | – | – | 6791 | 5.01e5 | inactive |
| Or49b (GeneID 36413) | DRSC07494 | – | – | 4683 | 2.56e5 | inactive |
| CG13051 (GeneID 5740583) | DRSC09932 | – | – | 7386 | 4.13e5 | inactive |
| Tsen54 (GeneID 39397) | DRSC10527 | – | – | 6984 | 4.65e5 | inactive |
| CG7208 (GeneID 42172) | DRSC16212 | – | – | 6987 | 3.91e5 | inactive |
| zpg (GeneID 251414) | DRSC09702 | – | – | 7246 | 4.11e5 | inactive |
| sax (GeneID 35731) | DRSC07675 | – | – | 8002 | 5.33e5 | inactive |
| CG13594 (GeneID 37940) | DRSC04229 | – | – | 6715 | 3.61e5 | inactive |
| CG13594 (GeneID 37940) | DRSC23254 | – | – | 3864 | 4.28e5 | inactive |
| Tsp42Er (GeneID 35629) | DRSC06183 | – | – | 6731 | 4.76e5 | inactive |
| CG10958 (GeneID 31736) | DRSC17768 | – | – | 7968 | 5.48e5 | inactive |
| AlkB (GeneID 2768870) | DRSC19115 | – | – | 4624 | 4.07e5 | inactive |
| mid (GeneID 33770) | DRSC02977 | – | – | 4642 | 3.50e5 | inactive |
| mid (GeneID 33770) | DRSC21493 | – | – | 8062 | 4.40e5 | inactive |
| CG31104 (GeneID 43054) | DRSC14658 | – | – | 6618 | 2.74e5 | inactive |
| Su(z)2 (GeneID 36432) | DRSC07558 | – | reporter ratio lowered past the hit cutoff | 4583 | 2.09e5 | inactive |
| Su(z)2 (GeneID 36432) | DRSC22970 | – | – | 5683 | 4.10e5 | inactive |
| CG8206 (GeneID 32516) | DRSC20093 | – | – | 5923 | 2.55e5 | inactive |
| CG31789 (GeneID 318943) | DRSC01645 | – | – | 5531 | 4.38e5 | inactive |
| Elba2 (GeneID 33442) | DRSC00731 | – | – | 15759 | 6.23e5 | inactive |
| CG4820 (GeneID 41344) | DRSC15654 | – | – | 6270 | 3.81e5 | inactive |
| f-cup (GeneID 41677) | DRSC14139 | – | – | 6470 | 4.07e5 | inactive |
| CG7402 (GeneID 39994) | DRSC10839 | – | – | 6854 | 3.32e5 | inactive |
| CG10431 (GeneID 35157) | DRSC02055 | – | – | 6459 | 3.52e5 | inactive |
| CG15126 (GeneID 50202) | DRSC06548 | – | – | 5071 | 2.64e5 | inactive |
| Prx1 (GeneID 39658) | DRSC10741 | – | – | 7114 | 3.04e5 | inactive |
| Dok (GeneID 31667) | DRSC18204 | – | – | 5652 | 3.17e5 | inactive |

Only “stable assay firefly, run 1 (luminescence)”, for 9 of the entries above:
CG15880 (GeneID 33257) [DRSC00474]: 3.78e5
CG2021 (GeneID 38229) [DRSC08546]: 3.24e5
Gr22f (GeneID 117349) [DRSC00076]: 3.93e5
Usp12-46 (GeneID 42702) [DRSC16175]: 3.64e5
etaTry (GeneID 36217) [DRSC07613]: 3.83e5
rush (GeneID 31105) [DRSC18568]: 5.44e5
Src42A (GeneID 35524) [DRSC04915]: 3.36e5
LS2 (GeneID 37681) [DRSC04340]: 4.84e5
ci (GeneID 43767) [DRSC17172]: 4.52e5
